The text below walks through data of PubChem BioAssay AID1347426 (Functional Genomics Laboratory (NCATS/FGL), 2020).

Hit rate of the full screen: of about 31,000 sequences, about 1,400 (4.5%) were called active.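 How the source made its calls: active means median seed-adjusted z-score above 1 or below -1; inactive means the rest.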 The list shows a part of the results.

This assay in a line: Novel Modifiers of Survival Motor Neuron (SMN) Protein: Gene Identification via Genome-wide siRNA Screen. To be noted: HEK293T SMN2-luciferase reporter, siRNA knockdown, 72 h; actives lie on both sides. In a few lines:
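Each of three siRNAs per gene is reverse-transfected (1 pmol) into reporter HEK293T cells whose luciferase output tracks SMN protein level. After 72 h culture, ONE-Glo luminescence is control-normalized, log10-transformed and MAD-standardized; Common Seed Analysis deprioritizes seed-driven hits.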
A general note: In a reporter assay the amount or activity of a reporter protein is the signal.
As for GGCUCAUCUGGUCAACUUUTT against 4-Mar, the median seed-adjusted z-score was inactive: 0.168.

Consider GAUGGACUGUAACAAAGCATT against GLS2, for which the median seed-adjusted z-score is inactive: -0.793.

As for GCAACGACUACUAUCCUGATT against RNPEPL1, the median seed-adjusted z-score was inactive: 0.

For the sequence CUGCUACCUCUGACCCAAATT against DTD1, the median seed-adjusted z-score was active: -1.58.

As for GCAACCCGCCUUAACCAUATT against SLC16A7, the median seed-adjusted z-score was inactive: 0.

With GUAUGAAAAUGAGUGCGAATT against BFSP1, the median seed-adjusted z-score was inactive: 0.057.

For GAUUGUUGAUGACUGGUUATT against PTP4A1, the median seed-adjusted z-score is inactive: 0.103.

Take UGAAUUUCGUAGUUCCAUATT against CNOT8: the median seed-adjusted z-score was inactive: 0.375.

ACAAAUAACUGGAGUCAAATT against HSD17B11: the median seed-adjusted z-score is inactive: 0.379.

Regarding GAACUGUGACGAAAGGUUUTT against ZNF652, the median seed-adjusted z-score was inactive: 0.

With GAAGCUAUUAUUACAAGAATT against REL, the median seed-adjusted z-score is inactive: -0.358.

For the sequence GCUUUGAUUUCACCAACAATT against GCM2, the median seed-adjusted z-score was inactive: -0.241.

As for GCCUCGAGCCUAUUCGUUATT against PCDHB4, the median seed-adjusted z-score is inactive: 0.00998.

Consider GCUUGAGCAUUGGUAUUCATT against LIPG, for which the median seed-adjusted z-score was inactive: -0.00236.

Turning to CAGUAACUGUGGAAGAUCUTT against SLC5A8, the median seed-adjusted z-score was inactive: 0.441.

On to GGGAGUUGUGCAUAAAGAATT against MYO1C, for which the median seed-adjusted z-score is inactive: 0.566.

In the case of CGACGGCACCUGCAAUUUUTT against IMPA2, the median seed-adjusted z-score was inactive: 0.0513.

For GGCAUUCACUCAUACGGCATT against ATIC, the median seed-adjusted z-score is inactive: -0.0267.

As to GGCAAGGGAUGAUCAUAUATT against ZNF420, the median seed-adjusted z-score was inactive: -0.5.

Regarding AGAAGAUCAUAGGCAGCAATT against KLK8, the median seed-adjusted z-score is inactive: 0.736.

As for CGAUUACAAGUUUAACGGUTT against ZFYVE9, the median seed-adjusted z-score was inactive: 0.373.

Turning to GGUUCGAAAUCGUGGAGCATT against KCNS2, the median seed-adjusted z-score was inactive: 0.0597.

On to GCUCUUUAAGGGUCACCCATT against MB, for which the median seed-adjusted z-score was inactive: 0.504.

Take GUCCAUGACUUGCCCAAUUTT against SLC14A1: the median seed-adjusted z-score is inactive: -0.0585.

Regarding AGCUUCCUACUAAAACGAATT against AGAP2, the median seed-adjusted z-score was inactive: 0.0934.

For GAUGAGUAUGCAAAAUUUATT against ATR, the median seed-adjusted z-score was inactive: -0.217.

With GAACCUCGAUGGGAUCAAATT against SFXN1, the median seed-adjusted z-score is inactive: -0.746.

Take GCAGUUUGGGAGUCCGGUATT against SLC16A13: the median seed-adjusted z-score was inactive: -0.0537.

Consider GUUUUAUCCAGGACCAGUATT against GATAD1, for which the median seed-adjusted z-score is inactive: 0.328.

In the case of GAGAGAAAAGGGUCACAAATT against GPR61, the median seed-adjusted z-score was inactive: 0.

Regarding GGUAUGAAGUAAAAAGCGATT against FBN2, the median seed-adjusted z-score is inactive: 0.373.

GGUGAUUGCAUACUCGGAATT against OSGEP: the median seed-adjusted z-score was inactive: 0.0178.

For the sequence AGACCAUAAUAGUGGAAAATT against SDHC, the median seed-adjusted z-score was inactive: 0.00895.

In the case of AGAGCAAUGUGACAAGUAUTT against CCRL2, the median seed-adjusted z-score was inactive: 0.575.

For GGAUUGAAAACAAACUCUATT against RET, the median seed-adjusted z-score was inactive: -0.931.

For the sequence CAGUCUUUUUGAUUCCCAUTT against NAT8, the median seed-adjusted z-score was inactive: -0.228.

For the sequence AGCCGGUUCUUACCUCUUATT against TST, the median seed-adjusted z-score was inactive: 0.

Consider GCAACACUUUCUGACCAUUTT against TRPM1, for which the median seed-adjusted z-score is inactive: -0.527.

Regarding CGUGCUAUCUGGAGUCCUATT against SERPINB3, the median seed-adjusted z-score is inactive: -0.373.

As for GUGUUUAACUCUAGUAUUUTT against HS3ST3B1, the median seed-adjusted z-score is inactive: 0.937.

Consider GCUGAGGUUUGGAGGCAAATT against CDK5R2, for which the median seed-adjusted z-score was inactive: -0.0965.

On to CAACUGCAGCAGAUUCUAATT against MNAT1, for which the median seed-adjusted z-score was inactive: -0.335.

For GGCGAUUUAUGGAUGAAGATT against MLL4, the median seed-adjusted z-score was inactive: -0.259.

Take CAUUCUAUGGGAUACCCUATT against SYT4: the median seed-adjusted z-score is inactive: -0.354.

As for CAAAGAGAUUUGUACAGAUTT against ZNF140, the median seed-adjusted z-score is inactive: 0.587.

Turning to GGUUGAAUAUGACAUAGAUTT against SMS, the median seed-adjusted z-score was inactive: 0.186.

As for GGAAGUACUGCGAACACGATT against LIMS2, the median seed-adjusted z-score was inactive: 0.

Turning to GAAGACCACUCGAAUCGAATT against HSP90B1, the median seed-adjusted z-score was inactive: 0.

GGAUGAUGAGCUCACGUAUTT against STAB1: the median seed-adjusted z-score is inactive: 0.264.

For GAAUGAGGUUGACUUCUAUTT against CASQ2, the median seed-adjusted z-score was inactive: 0.4.

As for GUAUCUUCAUUGAGCUCAATT against EPHA2, the median seed-adjusted z-score was inactive: 0.0948.

For GGCUGUCCUUAGUACCAGATT against CFTR, the median seed-adjusted z-score was active: -1.23.

For the sequence GAGCAACAGUCACCAGAUATT against MAT2A, the median seed-adjusted z-score is active: -1.9.

With GGAAGUAACACUCAACAAATT against PDZD2, the median seed-adjusted z-score was inactive: -0.00167.

Turning to CAUCAAAUCUAUGCAGUUUTT against KCNMA1, the median seed-adjusted z-score is inactive: 0.

For the sequence GUGGGAAACAAGUAAUAUATT against ZNF502, the median seed-adjusted z-score is inactive: 0.348.

For GGAAGAACCCUCUACCAAATT against COIL, the median seed-adjusted z-score was inactive: 0.

On to GUUUCGUCCAUGCAUCAAATT against ABCC2, for which the median seed-adjusted z-score is inactive: -0.0464.

On to CCUGCUUACCUGAUCAAAATT against SLC25A34, for which the median seed-adjusted z-score was inactive: -0.256.

In the case of CGGUGCCUGCGAAACAUCATT against CRHR1, the median seed-adjusted z-score was inactive: -0.67.

In the case of CUCCAGAUAUAGACCUCAATT against TRIM22, the median seed-adjusted z-score was inactive: 0.363.

For CAAUUACAAUGAGGAGAAATT against CHRND, the median seed-adjusted z-score was inactive: -0.112.

As for GGGCUACCAUCAUUGAUCUTT against HDAC11, the median seed-adjusted z-score is inactive: 0.259.

In the case of UCAGAACCGUAGGAUGAAATT against HOXD9, the median seed-adjusted z-score is inactive: -0.123.

Take GAUUUUAUCUCAGUACAUUTT against UCK2: the median seed-adjusted z-score is active: -1.51.

With GCAAAACAGCGGCAGAACATT against ATP8B2, the median seed-adjusted z-score was inactive: -0.268.

Take GCUACUGGGUGGGAGUAUATT against PIK3C2G: the median seed-adjusted z-score is inactive: 0.0251.

For CAUCCUAGCUAGCAUCUUUTT against SLC20A1, the median seed-adjusted z-score was inactive: -0.186.

On to CCACAUCUAAGAAAAUUUATT against PAX4, for which the median seed-adjusted z-score was inactive: 0.0811.

Regarding GGACUGACUCACAACUUAATT against ZNF527, the median seed-adjusted z-score is inactive: 0.

GGUUUUACAAAGGUUAAUATT against CACNB2: the median seed-adjusted z-score was inactive: 0.

On to CCAGUUAUUCAUGAACUUATT against DNAJB4, for which the median seed-adjusted z-score is inactive: -0.12.

On to AAUUCCUCUUCAACAUGUATT against HOXD9, for which the median seed-adjusted z-score is inactive: -0.123.

Regarding GGAAAUGCACAAGAUCUUUTT against BIN3, the median seed-adjusted z-score is inactive: 0.16.

Turning to GGAUGUUGGAAGACUCCGATT against NEO1, the median seed-adjusted z-score is inactive: 0.16.

As to GUACCUCCAUGGAGACAUATT against MKRN3, the median seed-adjusted z-score was inactive: 0.402.

In the case of AGAACAGCUUGACUCCCAUTT against MMP25, the median seed-adjusted z-score is inactive: 0.

As to CGACCUUCAAAGUUAACAATT against CLIP1, the median seed-adjusted z-score was inactive: 0.853.

GGCUGAAGCAUGCCCAGAATT against PPP1R16A: the median seed-adjusted z-score was inactive: 0.322.

As for GGCUCGAAUGGGUUCAUCUTT against CSNK2A1, the median seed-adjusted z-score was inactive: -0.408.

Turning to GAUCCUAAUCAGAACGUGATT against RND3, the median seed-adjusted z-score is inactive: -0.132.

GGCCGAGUGUACUACUUCATT against PIN1: the median seed-adjusted z-score was inactive: 0.156.

With GGAUGACAGUAACUUCGAUTT against EDEM3, the median seed-adjusted z-score is inactive: 0.119.

On to GCUGCGAUAUCAACGGUGATT against SOCS6, for which the median seed-adjusted z-score is inactive: 0.359.

In the case of CUGAAGACAUUGGUUCAAATT against MIXL1, the median seed-adjusted z-score is inactive: -0.204.

As for GAAGGAAACGAGCAGAUGATT against SGTA, the median seed-adjusted z-score was inactive: 0.819.

In the case of GGAUAGGAACACCAACUAATT against PFKFB1, the median seed-adjusted z-score is inactive: -0.561.

Turning to CCAAGGCAUCGGACAAUGATT against SLCO1B3, the median seed-adjusted z-score was inactive: -0.303.

For the sequence CCCACAAGCUCAACUGUGATT against DFFB, the median seed-adjusted z-score is inactive: 0.242.

Take CAAAGUUCAGUGUUACGAUTT against ENC1: the median seed-adjusted z-score was inactive: -0.132.

As for GGACCUGAAUAAGCGCAAATT against GNAI2, the median seed-adjusted z-score is inactive: 0.

For GCGAAAGGAUGCUUGCUAATT against RNF160, the median seed-adjusted z-score is inactive: -0.163.

Turning to GCAUGGUGGUGUACACGUUTT against FLVCR2, the median seed-adjusted z-score was inactive: -0.336.

Turning to GUAAAGCGAAUUGCACUUUTT against CRCT1, the median seed-adjusted z-score is inactive: -0.146.

Take CGGACAUACUCUGAAAUUATT against PCDHAC2: the median seed-adjusted z-score is inactive: -0.107.

As for GGAUCAUGAGGAUUUCAGATT against ACTN2, the median seed-adjusted z-score is inactive: 0.165.

Turning to CGGGUACUGUUCACAGCUATT against MPL, the median seed-adjusted z-score is inactive: -0.0153.

In the case of CGUCAUUGUCAGUUACAUATT against GPR125, the median seed-adjusted z-score was inactive: 0.516.

Turning to GACAUUCGAUUGGAUGGAATT against EPYC, the median seed-adjusted z-score was inactive: 0.00264.

With GGCUGAUAGUUUAGGAGUUTT against EIF5B, the median seed-adjusted z-score is active: 1.68.

In the case of GGAGGAUGACAAGAUCUAUTT against RNF113A, the median seed-adjusted z-score is inactive: -0.128.

As to CUGCUGUCAUUGCUCCUGATT against CCL27, the median seed-adjusted z-score was inactive: 0.

As to CAGAGAUAGUUGUGCUUUUTT against MEST, the median seed-adjusted z-score is inactive: -0.0503.

Turning to CUGUUGAGGUUGUUAUUGATT against GABPA, the median seed-adjusted z-score is active: 1.43.

GAAUGGAGGGAACACUUUUTT against ZNF562: the median seed-adjusted z-score is inactive: -0.0954.

On to GAGUGUCCACAUCAAGAGATT against ITGAD, for which the median seed-adjusted z-score is inactive: 0.188.

For the sequence GAAUUCCCGUGGACUUGAATT against ADCK2, the median seed-adjusted z-score was inactive: 0.0823.

GCAUUUUUAUCGUGCUCAUTT against GRIK5: the median seed-adjusted z-score is inactive: -0.242.
